The supplement of paper PMC10849652
The other results are listed elsewhere or left out.

By UniProt entry, the sequences of proteins in these tests, tags left out. Where a name states a change or a piece, a line headed by the entry shows the natural chain unless it says otherwise.
UniProt Q8IZT6: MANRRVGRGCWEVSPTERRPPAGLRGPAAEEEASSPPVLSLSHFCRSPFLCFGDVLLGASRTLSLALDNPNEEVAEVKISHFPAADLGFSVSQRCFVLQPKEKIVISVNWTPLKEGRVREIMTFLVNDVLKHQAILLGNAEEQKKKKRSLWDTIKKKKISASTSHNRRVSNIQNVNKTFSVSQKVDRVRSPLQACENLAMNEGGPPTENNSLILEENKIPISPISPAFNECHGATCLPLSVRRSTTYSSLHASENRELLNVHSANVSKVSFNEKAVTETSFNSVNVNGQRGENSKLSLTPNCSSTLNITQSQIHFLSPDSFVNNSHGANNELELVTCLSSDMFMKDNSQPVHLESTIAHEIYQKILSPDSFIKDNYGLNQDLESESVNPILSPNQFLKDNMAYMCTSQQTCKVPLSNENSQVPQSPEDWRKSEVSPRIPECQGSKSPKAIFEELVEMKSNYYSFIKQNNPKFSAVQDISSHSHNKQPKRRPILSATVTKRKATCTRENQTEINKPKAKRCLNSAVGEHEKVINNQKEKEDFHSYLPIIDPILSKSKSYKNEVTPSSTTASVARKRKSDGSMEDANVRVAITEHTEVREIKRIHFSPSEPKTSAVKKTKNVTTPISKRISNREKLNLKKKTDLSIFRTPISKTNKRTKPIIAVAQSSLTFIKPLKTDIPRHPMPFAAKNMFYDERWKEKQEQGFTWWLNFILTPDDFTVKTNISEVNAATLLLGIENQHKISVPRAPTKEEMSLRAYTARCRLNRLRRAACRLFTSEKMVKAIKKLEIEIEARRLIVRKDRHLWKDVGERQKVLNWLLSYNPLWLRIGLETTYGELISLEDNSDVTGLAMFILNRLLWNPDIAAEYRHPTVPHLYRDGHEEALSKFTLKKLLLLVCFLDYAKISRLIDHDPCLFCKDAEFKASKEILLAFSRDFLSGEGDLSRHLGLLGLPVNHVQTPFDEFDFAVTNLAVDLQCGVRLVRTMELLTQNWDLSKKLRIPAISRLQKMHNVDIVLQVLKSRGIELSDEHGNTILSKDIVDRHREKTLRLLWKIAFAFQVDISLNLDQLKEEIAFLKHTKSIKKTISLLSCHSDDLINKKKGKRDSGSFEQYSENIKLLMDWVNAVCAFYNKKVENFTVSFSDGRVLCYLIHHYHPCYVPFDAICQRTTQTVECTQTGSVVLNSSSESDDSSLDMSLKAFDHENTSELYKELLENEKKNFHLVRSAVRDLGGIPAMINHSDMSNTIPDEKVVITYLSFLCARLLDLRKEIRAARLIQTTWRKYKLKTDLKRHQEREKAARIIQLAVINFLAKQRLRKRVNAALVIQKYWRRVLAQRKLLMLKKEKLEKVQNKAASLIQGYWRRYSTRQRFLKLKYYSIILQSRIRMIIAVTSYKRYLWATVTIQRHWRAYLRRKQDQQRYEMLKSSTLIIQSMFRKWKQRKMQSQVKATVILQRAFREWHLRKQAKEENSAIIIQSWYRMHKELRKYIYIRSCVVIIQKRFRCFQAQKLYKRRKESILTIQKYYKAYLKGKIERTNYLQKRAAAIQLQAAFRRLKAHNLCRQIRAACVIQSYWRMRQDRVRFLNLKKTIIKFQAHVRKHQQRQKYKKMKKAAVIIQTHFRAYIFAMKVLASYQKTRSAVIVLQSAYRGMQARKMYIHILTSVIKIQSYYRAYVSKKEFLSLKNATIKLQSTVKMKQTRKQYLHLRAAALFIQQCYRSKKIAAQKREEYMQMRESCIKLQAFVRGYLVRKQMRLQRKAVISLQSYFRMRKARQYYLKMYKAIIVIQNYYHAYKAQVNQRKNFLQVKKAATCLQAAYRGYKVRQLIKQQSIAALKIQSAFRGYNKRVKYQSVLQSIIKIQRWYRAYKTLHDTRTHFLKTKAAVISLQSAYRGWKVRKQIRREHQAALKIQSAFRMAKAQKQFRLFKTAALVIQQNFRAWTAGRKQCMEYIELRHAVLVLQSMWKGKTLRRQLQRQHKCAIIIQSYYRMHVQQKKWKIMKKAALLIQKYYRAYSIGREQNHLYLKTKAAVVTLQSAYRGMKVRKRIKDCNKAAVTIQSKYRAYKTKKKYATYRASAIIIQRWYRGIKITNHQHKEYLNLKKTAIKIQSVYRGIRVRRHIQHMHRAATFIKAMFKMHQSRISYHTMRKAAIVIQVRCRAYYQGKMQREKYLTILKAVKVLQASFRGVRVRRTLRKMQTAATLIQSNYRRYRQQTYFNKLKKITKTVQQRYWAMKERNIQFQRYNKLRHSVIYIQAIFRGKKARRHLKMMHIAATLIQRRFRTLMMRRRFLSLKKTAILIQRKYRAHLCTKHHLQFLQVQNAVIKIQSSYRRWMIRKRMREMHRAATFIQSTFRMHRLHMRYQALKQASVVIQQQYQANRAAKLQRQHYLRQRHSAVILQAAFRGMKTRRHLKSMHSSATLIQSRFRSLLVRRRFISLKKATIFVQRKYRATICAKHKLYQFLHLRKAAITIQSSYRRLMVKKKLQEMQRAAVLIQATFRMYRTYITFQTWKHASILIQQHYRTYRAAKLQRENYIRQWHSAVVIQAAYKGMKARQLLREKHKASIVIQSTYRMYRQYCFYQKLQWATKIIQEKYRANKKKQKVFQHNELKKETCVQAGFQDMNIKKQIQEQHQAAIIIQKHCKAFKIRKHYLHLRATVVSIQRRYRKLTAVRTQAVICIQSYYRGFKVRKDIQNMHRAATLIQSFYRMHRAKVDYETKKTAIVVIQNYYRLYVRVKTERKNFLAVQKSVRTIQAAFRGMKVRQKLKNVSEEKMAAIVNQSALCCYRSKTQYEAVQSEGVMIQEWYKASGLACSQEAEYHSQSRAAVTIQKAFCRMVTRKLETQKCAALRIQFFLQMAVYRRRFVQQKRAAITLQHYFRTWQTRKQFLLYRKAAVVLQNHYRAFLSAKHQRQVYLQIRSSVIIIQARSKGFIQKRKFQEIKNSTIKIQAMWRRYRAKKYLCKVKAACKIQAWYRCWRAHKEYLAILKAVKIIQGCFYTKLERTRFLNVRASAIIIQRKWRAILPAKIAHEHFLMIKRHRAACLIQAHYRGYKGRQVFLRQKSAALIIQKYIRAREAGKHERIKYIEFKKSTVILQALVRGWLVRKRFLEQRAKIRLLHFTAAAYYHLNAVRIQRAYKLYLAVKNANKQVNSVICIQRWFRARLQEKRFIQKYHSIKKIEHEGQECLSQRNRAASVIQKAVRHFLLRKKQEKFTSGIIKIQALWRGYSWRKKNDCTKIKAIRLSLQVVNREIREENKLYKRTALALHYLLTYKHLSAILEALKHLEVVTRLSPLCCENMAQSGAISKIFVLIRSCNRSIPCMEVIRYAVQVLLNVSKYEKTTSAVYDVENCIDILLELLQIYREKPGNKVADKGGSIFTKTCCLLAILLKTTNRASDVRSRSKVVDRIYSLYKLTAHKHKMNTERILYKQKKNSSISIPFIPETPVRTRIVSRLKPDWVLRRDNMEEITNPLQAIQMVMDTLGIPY
UniProt Q9NXU5: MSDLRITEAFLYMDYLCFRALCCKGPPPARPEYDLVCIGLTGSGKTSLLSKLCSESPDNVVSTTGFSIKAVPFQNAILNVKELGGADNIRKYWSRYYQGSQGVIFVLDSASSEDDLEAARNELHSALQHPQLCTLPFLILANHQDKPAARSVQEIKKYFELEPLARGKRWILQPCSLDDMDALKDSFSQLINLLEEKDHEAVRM
UniProt P16615: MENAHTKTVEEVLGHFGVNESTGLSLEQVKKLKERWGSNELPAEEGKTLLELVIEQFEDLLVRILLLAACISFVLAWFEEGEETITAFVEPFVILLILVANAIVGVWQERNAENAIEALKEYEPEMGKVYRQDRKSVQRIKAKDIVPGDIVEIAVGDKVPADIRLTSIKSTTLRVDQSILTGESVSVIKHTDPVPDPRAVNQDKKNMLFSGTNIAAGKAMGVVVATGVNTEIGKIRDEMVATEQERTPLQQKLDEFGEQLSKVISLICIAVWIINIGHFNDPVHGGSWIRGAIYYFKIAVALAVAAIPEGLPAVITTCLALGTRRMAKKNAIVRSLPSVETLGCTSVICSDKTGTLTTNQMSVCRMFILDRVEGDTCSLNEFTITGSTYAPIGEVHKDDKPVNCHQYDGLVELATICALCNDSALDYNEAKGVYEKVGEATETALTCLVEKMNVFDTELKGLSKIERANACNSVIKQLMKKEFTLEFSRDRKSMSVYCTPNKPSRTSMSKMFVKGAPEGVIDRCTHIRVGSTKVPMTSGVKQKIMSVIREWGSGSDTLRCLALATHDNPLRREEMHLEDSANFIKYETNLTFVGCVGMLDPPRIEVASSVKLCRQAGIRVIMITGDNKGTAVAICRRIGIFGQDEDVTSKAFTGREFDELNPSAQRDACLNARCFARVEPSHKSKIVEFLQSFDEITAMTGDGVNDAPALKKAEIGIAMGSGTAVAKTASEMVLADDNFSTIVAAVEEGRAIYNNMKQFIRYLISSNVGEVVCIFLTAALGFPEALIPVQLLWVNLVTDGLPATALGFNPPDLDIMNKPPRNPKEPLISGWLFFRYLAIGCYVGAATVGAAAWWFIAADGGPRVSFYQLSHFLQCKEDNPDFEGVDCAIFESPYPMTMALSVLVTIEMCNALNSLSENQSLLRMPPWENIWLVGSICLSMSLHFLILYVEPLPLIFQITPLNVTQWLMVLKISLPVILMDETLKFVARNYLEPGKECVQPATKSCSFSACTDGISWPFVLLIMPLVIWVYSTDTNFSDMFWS
UniProt Q6DD88: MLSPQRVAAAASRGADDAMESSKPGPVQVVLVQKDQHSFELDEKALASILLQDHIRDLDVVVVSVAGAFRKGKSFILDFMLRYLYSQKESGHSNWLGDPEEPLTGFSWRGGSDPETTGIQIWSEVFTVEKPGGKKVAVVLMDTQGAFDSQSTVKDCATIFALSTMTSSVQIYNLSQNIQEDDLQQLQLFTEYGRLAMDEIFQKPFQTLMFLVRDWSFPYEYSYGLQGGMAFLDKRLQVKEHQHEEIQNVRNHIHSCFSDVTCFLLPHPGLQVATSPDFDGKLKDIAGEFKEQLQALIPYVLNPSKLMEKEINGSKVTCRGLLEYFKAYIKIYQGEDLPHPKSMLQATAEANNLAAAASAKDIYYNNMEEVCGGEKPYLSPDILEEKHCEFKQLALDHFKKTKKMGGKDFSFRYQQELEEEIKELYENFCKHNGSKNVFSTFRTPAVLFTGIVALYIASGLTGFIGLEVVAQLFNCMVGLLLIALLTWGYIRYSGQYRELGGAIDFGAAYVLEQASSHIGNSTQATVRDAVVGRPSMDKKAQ
UniProt P15336: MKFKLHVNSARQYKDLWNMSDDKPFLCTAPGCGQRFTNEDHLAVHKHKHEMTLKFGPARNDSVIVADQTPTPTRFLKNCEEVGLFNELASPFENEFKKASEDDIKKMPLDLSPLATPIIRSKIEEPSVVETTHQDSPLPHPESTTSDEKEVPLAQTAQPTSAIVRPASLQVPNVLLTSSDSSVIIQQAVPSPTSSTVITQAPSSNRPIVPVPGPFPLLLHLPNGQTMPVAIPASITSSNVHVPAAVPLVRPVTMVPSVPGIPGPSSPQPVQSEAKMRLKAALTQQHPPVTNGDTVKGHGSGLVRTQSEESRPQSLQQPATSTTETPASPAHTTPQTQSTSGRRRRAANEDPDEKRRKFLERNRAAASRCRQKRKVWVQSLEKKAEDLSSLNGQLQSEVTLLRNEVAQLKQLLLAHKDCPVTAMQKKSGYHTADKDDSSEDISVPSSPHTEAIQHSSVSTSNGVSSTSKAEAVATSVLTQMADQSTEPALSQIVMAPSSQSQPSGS
UniProt Q9BZE9, whole entry, looked up: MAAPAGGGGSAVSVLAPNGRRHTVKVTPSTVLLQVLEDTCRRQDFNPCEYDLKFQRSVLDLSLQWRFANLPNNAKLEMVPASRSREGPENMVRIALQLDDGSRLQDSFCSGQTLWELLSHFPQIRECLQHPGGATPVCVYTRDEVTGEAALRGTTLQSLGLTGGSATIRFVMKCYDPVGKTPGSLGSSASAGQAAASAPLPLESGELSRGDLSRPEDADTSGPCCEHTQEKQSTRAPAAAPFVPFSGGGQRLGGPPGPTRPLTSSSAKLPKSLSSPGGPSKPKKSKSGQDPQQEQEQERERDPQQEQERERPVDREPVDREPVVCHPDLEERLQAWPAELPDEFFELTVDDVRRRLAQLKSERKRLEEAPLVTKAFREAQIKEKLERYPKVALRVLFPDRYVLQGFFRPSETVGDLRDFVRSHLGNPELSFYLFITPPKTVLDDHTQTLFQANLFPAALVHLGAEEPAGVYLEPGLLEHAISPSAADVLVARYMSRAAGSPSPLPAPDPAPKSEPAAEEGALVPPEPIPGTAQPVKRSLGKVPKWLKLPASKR
UniProt Q9Y5K8, whole entry, looked up: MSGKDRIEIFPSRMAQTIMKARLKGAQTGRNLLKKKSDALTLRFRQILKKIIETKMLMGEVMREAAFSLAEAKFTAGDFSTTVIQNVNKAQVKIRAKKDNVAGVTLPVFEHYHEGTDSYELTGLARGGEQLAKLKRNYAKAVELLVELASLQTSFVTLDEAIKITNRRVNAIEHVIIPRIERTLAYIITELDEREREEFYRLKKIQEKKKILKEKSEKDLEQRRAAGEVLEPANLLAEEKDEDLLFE

Key:
Experiment in all cases: log2 fold change, soluble protein after heating vs DMSO (PISA); higher = thermal stabilisation; K562 cells, 10 uM, 30 min; active = over 0.2 and 3.5 SD of the protein, either way, in both replicates (recomputed)
[1] = compound: CS(=O)(=O)c1ccc(-c2cnc(N)c(C(=O)Nc3ccccc3)n2)cc1
Procedure, shortened: (§1)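 Thermal stability values are relative to control samples and come from duplicates. They are expressed as log2 fold changes. For measurement, K562 cells (2×10^6 cells/mL) received 10 μM compound for 30 min, and aliquots were heated for 3 min over 48°C-58°C, pooled, and extracted at 4°C in PBS with 0.5% NP-40. Soluble protein, the supernatant after 21,000xg for 90 min, was quantified by TMTpro 16plex LC-MS/MS with equalised channel sums.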

[2] = compound: C[C@@H](Oc1cc(-c2cnn(C3CCNCC3)c2)cnc1N)c1c(Cl)ccc(F)c1Cl [crizotinib]
Procedure, shortened: as §1

[3] = compound: C[C@@H]1COCCN1C2=NC(=NC(=C2)C3(CC3)S(=O)(=O)C)C4=C5C=CNC5=CC=C4
Procedure, shortened: as §1

[4] = compound: C[C@H](C1=CC=C(C=C1)C(=O)NC2=C3C=CNC3=NC=C2)N
Procedure, shortened: as §1

[5] = compound: C[C@H](Nc1ncnc2nc[nH]c12)c1cc2cccc(Cl)c2c(=O)n1-c1ccccc1 [duvelisib]
Procedure, shortened: as §1

[6] = compound: Cc1cc(Nc2cc(CN3CCOCC3)c3nc(C)c(Cc4ccc(Cl)cc4F)n3n2)n[nH]1 [gandotinib]
Procedure, shortened: as §1

[7] = compound: Cc1cc(Nc2cc(N3CCN(C)CC3)nc(Sc3ccc(NC(=O)C4CC4)cc3)n2)n[nH]1 [tozasertib]
Procedure, shortened: as §1

[8] = compound: Cc1cc(SCc2sc(-c3ccc(C(F)(F)F)cc3)nc2C)ccc1OCC(=O)O
Procedure, shortened: as §1

[9] = compound: Cc1ccc(-n2nc(C(C)(C)C)cc2NC(=O)Nc2ccc(OCCN3CCOCC3)c3ccccc23)cc1 [doramapimod]
Procedure, shortened: as §1

[10] = compound: Cc1ccc(C(=O)N(CCCN)[C@@H](c2nc3cc(Cl)ccc3c(=O)n2Cc2ccccc2)C(C)C)cc1 [ispinesib]
Procedure, shortened: as §1

[11] = compound: Cc1ccc(NC(=O)c2ccc(CN3CC[C@H](N(C)C)C3)c(C(F)(F)F)c2)cc1Nc1nccc(-c2cncnc2)n1 [bafetinib]
Procedure, shortened: as §1

[12] = compound: Cc1cccc(CC(=O)N2CCc3c2ccc(-c2cn(C)c4ncnc(N)c24)c3F)n1
Procedure, shortened: as §1

[13] = compound: Cc1cn(-c2cc(NC(=O)c3ccc(C)c(Nc4nccc(-c5cccnc5)n4)c3)cc(C(F)(F)F)c2)cn1 [nilotinib]
Procedure, shortened: as §1

[14] = compound: Cc1nc(Nc2n[nH]c3c2CN(C(=O)N[C@H](CN(C)C)c2ccccc2)C3(C)C)c2sccc2n1
Procedure, shortened: as §1

[15] = compound: Cc1nc(Nc2ncc(C(=O)Nc3c(C)cccc3Cl)s2)cc(N2CCN(CCO)CC2)n1 [dasatinib]
Procedure, shortened: as §1

[16] = compound: Cc1ncc(-c2ccnc(Nc3ccc(S(C)(=O)=O)cc3)n2)n1C(C)C
Procedure, shortened: as §1

[17] = compound: Cn1cc(-c2ccc3c(c2)CCN3C(=O)Cc2cccc(C(F)(F)F)c2)c2c(N)ncnc21
Procedure, shortened: as §1

[18] = compound: Cn1cc(-c2ccc3nnc(C(F)(F)c4ccc5ncccc5c4)n3n2)cn1
Procedure, shortened: as §1

[19] = compound: Cn1cncc1[C@@](N)(c1ccc(Cl)cc1)c1ccc2c(c1)c(-c1cccc(Cl)c1)cc(=O)n2C [tipifarnib]
Procedure, shortened: as §1

[20] = compound: FC(F)(F)c1ccc(/C=C/c2nc(COc3ccc(CCCCn4ccnn4)cc3)co2)cc1 [mubritinib]
Procedure, shortened: as §1

Measured: log2 fold change

ATP5MC2 isoform 2 (UniProt Q06055)
inactive: [1] 0.064 | [2] -0.049 | [3] 0.161 | [4] -0.089 | [5] 0.067 | [6] -0.059 | [7] 0.002 | [8] -0.148 | [9] 0.047 | [10] -0.072 | [11] -0.033 | [12] -0.087 | [13] -0.052 | [14] 0.006 | [15] 0.057 | [16] -0.082 | [17] 0.013 | [18] 0.024 | [19] 0.213 | [20] 0.03

ASPM (UniProt Q8IZT6)
inactive: [1] 0 | [2] 0.039 | [3] 0.157 | [4] -0.11 | [5] 0.019 | [6] -0.206 | [7] -0.018 | [8] 0.015 | [9] -0.01 | [10] 0.026 | [11] -0.069 | [12] 0.018 | [13] 0.047 | [14] -0.056 | [15] -0.056 | [16] -0.004 | [17] -0.098 | [18] -0.029 | [19] -0.028 | [20] 0.068

ARL15 (UniProt Q9NXU5)
inactive: [1] 0.02 | [2] 0.005 | [3] 0.081 | [4] -0.145 | [5] 0.105 | [6] -0.039 | [7] -0.019 | [8] 0.034 | [9] -0.06 | [10] 0.07 | [11] 0.014 | [12] 0.013 | [13] 0.007 | [14] -0.007 | [15] -0.037 | [16] 0.026 | [17] 0.144 | [18] 0.061 | [19] -0.019 | [20] 0.008

ATG4C (UniProt Q96DT6)
inactive: [1] 0.059 | [2] -0.123 | [3] 0.016 | [4] -0.061 | [5] 0.045 | [6] -0.05 | [7] -0.044 | [8] 0.062 | [9] -0.051 | [10] -0.02 | [11] 0 | [12] -0.02 | [13] -0.152 | [14] -0.239 | [15] -0.276 | [16] 0.045 | [17] 0.044 | [18] -0.105 | [19] 0.045 | [20] -0.006

Retrieved one by one from the entries so far (two):
ATG4C (UniProt Q96DT6)
inactive: [1] 0.059 | [2] -0.123 | [3] 0.016 | [4] -0.061 | [5] 0.045 | [6] -0.05 | [7] -0.044 | [8] 0.062 | [9] -0.051 | [10] -0.02 | [11] 0 | [12] -0.02 | [13] -0.152 | [14] -0.239 | [15] -0.276 | [16] 0.045 | [17] 0.044 | [18] -0.105 | [19] 0.045 | [20] -0.006

ATP5MC2 isoform 2 (UniProt Q06055)
inactive: [1] 0.064 | [2] -0.049 | [3] 0.161 | [4] -0.089 | [5] 0.067 | [6] -0.059 | [7] 0.002 | [8] -0.148 | [9] 0.047 | [10] -0.072 | [11] -0.033 | [12] -0.087 | [13] -0.052 | [14] 0.006 | [15] 0.057 | [16] -0.082 | [17] 0.013 | [18] 0.024 | [19] 0.213 | [20] 0.03

Remaining list, next part.

ARL8A (UniProt Q96BM9)
inactive: [1] -0.063 | [2] -0.045 | [3] 0.023 | [4] 0.018 | [5] 0.12 | [6] -0.02 | [7] 0.124 | [8] -0.052 | [9] -0.011 | [10] -0.209 | [11] -0.101 | [12] -0.042 | [13] -0.008 | [14] 0.049 | [15] 0.027 | [16] -0.001 | [17] 0.031 | [18] 0.096 | [19] 0.084 | [20] 0.026

ATP2A2 (UniProt P16615)
inactive: [1] -0.005 | [2] 0.013 | [3] 0.044 | [4] -0.059 | [5] 0.015 | [6] -0.039 | [7] -0.009 | [8] -0.009 | [9] -0.011 | [10] -0.04 | [11] -0.024 | [12] 0.018 | [13] -0.029 | [14] 0.006 | [15] -0.046 | [16] 0.005 | [17] 0.017 | [18] 0.011 | [19] -0.01 | [20] -0.013

ATL3 (UniProt Q6DD88)
inactive: [1] 0.007 | [2] -0.082 | [3] 0.047 | [4] -0.078 | [5] 0.026 | [6] -0.061 | [7] -0.026 | [8] 0.019 | [9] -0.01 | [10] 0.014 | [11] -0.082 | [12] 0.073 | [13] -0.091 | [14] -0.006 | [15] -0.071 | [16] 0.018 | [17] 0.065 | [18] 0.016 | [19] -0.063 | [20] 0.013

ATF2 (UniProt P15336)
inactive: [1] 0.017 | [2] 0.009 | [3] 0.233 | [4] -0.117 | [5] -0.12 | [6] 0.013 | [7] -0.134 | [8] -0.136 | [9] 0 | [10] 0.004 | [11] 0.024 | [12] 0.05 | [13] -0.181 | [14] 0.123 | [15] 0.218 | [16] 0.006 | [17] 0.02 | [18] 0.005 | [19] -0.06 | [20] 0.137

ATP6V1E1 (UniProt P36543)
inactive: [1] 0.015 | [2] -0.104 | [3] -0.023 | [4] 0.025 | [5] 0.021 | [6] 0.044 | [7] 0.063 | [8] 0.052 | [9] 0.032 | [10] -0.003 | [11] -0.143 | [12] 0.015 | [13] -0.034 | [14] -0.043 | [15] 0.03 | [16] 0.048 | [17] -0.03 | [18] -0.039 | [19] 0.036 | [20] 0.094

ATG7 (UniProt O95352)
inactive: [1] 0.038 | [2] 0.02 | [3] 0.047 | [4] -0.061 | [5] -0.02 | [6] -0.151 | [7] -0.004 | [8] 0.1 | [9] -0.003 | [10] 0.048 | [11] -0.007 | [12] 0.031 | [13] -0.045 | [14] -0.043 | [15] -0.09 | [16] -0.04 | [17] 0.065 | [18] 0.002 | [19] -0.087 | [20] 0.04

ASPSCR1 isoform 2 (UniProt Q9BZE9)
inactive: [1] 0.059 | [2] -0.012 | [3] 0.013 | [4] 0.081 | [5] 0.063 | [6] -0.044 | [7] 0.03 | [8] 0.011 | [9] 0.007 | [10] 0.045 | [11] 0.023 | [12] 0.074 | [13] 0.016 | [14] -0.02 | [15] -0.015 | [16] 0.004 | [17] -0.023 | [18] 0.01 | [19] -0.066 | [20] 0.134

ARSA (UniProt P15289)
inactive: [1] 0.02 | [2] -0.041 | [3] 0.047 | [4] 0.065 | [5] 0.146 | [6] 0.062 | [7] 0.145 | [8] -0.069 | [9] 0.004 | [10] -0.065 | [11] -0.003 | [12] -0.017 | [13] 0.001 | [14] 0.157 | [15] 0.154 | [16] 0.023 | [17] 0.001 | [18] -0.024 | [19] -0.007 | [20] -0.011

ATM (UniProt Q13315)
inactive: [1] 0.059 | [2] -0.105 | [3] 0.099 | [4] -0.087 | [5] 0.036 | [6] -0.036 | [7] 0.036 | [8] -0.025 | [9] 0.023 | [10] -0.007 | [11] -0.078 | [12] 0.035 | [13] 0.021 | [14] -0.074 | [15] -0.193 | [16] -0.033 | [17] 0.128 | [18] 0.003 | [19] -0.026 | [20] 0.002

ATP6V1D (UniProt Q9Y5K8)
inactive: [1] -0.023 | [2] -0.177 | [3] 0.032 | [4] 0.061 | [5] -0.022 | [6] 0.023 | [7] 0.003 | [8] -0.024 | [9] 0 | [10] -0.112 | [11] -0.056 | [12] 0.007 | [13] 0.018 | [14] 0.007 | [15] 0.055 | [16] -0.011 | [17] -0.003 | [18] 0.018 | [19] 0.058 | [20] 0.052

ARPC5 (UniProt O15511)
inactive: [1] -0.006 | [2] 0.041 | [3] -0.017 | [4] -0.02 | [5] 0.033 | [6] 0.035 | [7] 0.024 | [8] -0.038 | [9] 0.003 | [10] 0.053 | [11] -0.023 | [12] -0.111 | [13] 0.107 | [14] -0.01 | [15] 0.083 | [16] 0.104 | [17] -0.033 | [18] -0.001 | [19] -0.018 | [20] -0.012
